From US20230364084A1, “METHODS FOR PREVENTING OR TREATING CONDITIONS RELATED TO PIKFYVE ACTIVITY” (The Regents of the University of Michigan, priority 2020, published 2023)
For at least one compound, name, drawing or mass did not settle the structure.

How the values were obtained:
[1] = test system: LC3-II in prostate cancer cell lines; assay: LC3 lipidation western blot; format: cell-based, human; conditions: VCaP cells, 1 μM, 24 hours
Procedure: Cell lysates were harvested in Pierce RIPA Lysis buffer (Thermo Scientific) containing protease inhibitor cocktail tablets (Roche) and phosphatase inhibitor cocktail (Millipore). Protein concentration was measured using the DC Protein Assay (Bio-Rad) to ensure an equal amount of protein was loaded onto a gel. The denatured lysates were separated on NuPage 4-12% Bis-Tris Midi Protein gels (Novex) and transferred to 0.45-μm PVDF transfer membrane (Immobilon) using a TransBlot Turbo dry transfer machine (Bio-Rad). The membrane was incubated in blocking buffer (5% non-fat dry milk, Tris-buffered saline with 0.1% Tween 20) for 1 hour at room temperature. The membrane was then incubated with the listed antibodies for 1 hour at room temperature, followed by overnight incubation at 4° C. Chemiluminescent detection using ECL Prime (Amersham) and HyBlot CL autoradiography film (Denville Scientific) was used to visualize the blots. Antibodies used in the immunoblotting assays were against ATG5 (Cat No. 12994S, Cell Signaling Technology), ATG7 (Cat No. 8558S, Cell Signaling Technology), ULK1 (Cat No. 8054S, Cell Signaling Technology), Beclin1 (Cat No. 4122S, Cell Signaling Technology), FIP200 (Cat No. 12436S, Cell Signaling Technology), LC3A/B (Cat No. 127415, Cell Signaling Technology), PIKfyve (Cat No. AF7885, R&D Systems), and GAPDH (Cat No. 3683S, Cell Signaling Technology).

CRPC = conditions: phase III trial; cited from earlier work
[2] = test system: prostate cancer cell lines (VCaP, LNCaP, 22RV1, LNCaP-AR, PC3, DU145); assay: long-term survival assay (14 days, crystal violet); format: cell-based, human; conditions: panel of prostate cancer cell lines, two weeks
Procedure: Single cell suspensions were seeded into 96-well plates at a density of 1,000-30,000 cells per well. Long-term survival was determined after 14 days of drug incubation. Viable cells were fixed with 4% formaldehyde and subsequently stained with 1% crystal violet. IC50 was calculated using GraphPad Prism.

[3] = test system: DU145 prostate cancer cells; assay: cell viability screen with a 167-compound tyrosine kinase inhibitor library; format: cell-based, human; conditions: 300 nM
Procedure: FIG. 1: ESK981 inhibits the growth of diverse preclinical models of prostate cancer and is associated with a unique vacuolization morphology. • (a) The percentage viabilities of DU145 cells treated with 300 nM ESK981 or 167 other tyrosine kinase inhibitors when compared to a vehicle control. The top five most inhibitory compounds, as well as cabozantinib and crizotinib (highlighted in orange), and their respective targets are listed in the table. […] Long-term survival (two weeks) was assayed by absorbance of crystal violet at OD590. • (e) VCaP-RFP cells were cultured for three days in ultralow attachment plates to form 3D tumor spheroids prior to the indicated drug treatments. […] Fluorescence intensity of 3D spheroids was measured by IncuCyte ZOOM. • (f) Castration-resistant VCaP tumors were established subcutaneously in castrated SCID mice, and mice were randomized into three groups, which received vehicle, 30 mg/kg, or 60 mg/kg ESK981 by oral gavage once per day for the indicated dosing schedule. Tumor volumes were monitored by a digital caliper twice per week. Data were analyzed by unpaired t test and presented as mean±SEM. *p<0.05; **p<0.01. • (g) AR^+ prostate patient-derived xenograft (PDX) MDA-PCa-146-12 were implanted subcutaneously in non-castrated SCID mice, and mice were randomized into two groups receiving either once daily vehicle or 30 mg/kg ESK981 for five days each week. […]

CXCL10 in VCaP cells = assay: human CXCL10 ELISA of conditioned medium; format: cell-based; conditions: 24 hours
Procedure: Conditioned medium was collected after 24 hours of drug incubation. ELISA was performed using a human CXCL10 ELISA kit (Cat No. KAC2361, ThermoFisher), or a mouse CXCL10 ELISA kit (Cat No. ab214563, Abcam) according to the manufacturer's instructions.

Structure (SMILES) | induction of LC3-II [1] | primary survival endpoint (CRPC) | IC50 in words [2] | growth inhibition (cell viability) [3] | CXCL10 induction / secretion (CXCL10 in VCaP cells)
COc1cc2nccc(Oc3ccc(NC(=O)C4(C(=O)Nc5ccc(F)cc5)CC4)cc3)c2cc1OC [cabozantinib] | did not induce LC3-II | failed to meet its primary survival endpoint | micromolar | no such growth inhibitory effects | 
CO[C@H]1C[C@@H]2CC[C@@H](C)[C@@](O)(O2)C(=O)C(=O)N2CCCC[C@H]2C(=O)O[C@H]([C@H](C)C[C@@H]2CC[C@@H](O)[C@H](OC)C2)CC(=O)[C@H](C)/C=C(\C)[C@@H](O)[C@@H](OC)C(=O)[C@H](C)C[C@H](C)/C=C/C=C/C=C/1C [rapamycin] |  |  |  |  | marginally increased CXCL10 secretion, but only at higher concentrations
